Source: patent publication US20160039676A1, “Fullerene Derivatives and Their Applications in Organic Photovoltaics” (Nano and Advanced Materials Institute Limited, priority 2014, published 2016)

Assay: Organic solar cell performance with the fullerene as electron acceptor in the active layer, ITO/PEDOT/Active layer/LiF/Al
Conditions: area 0.16 cm^2

CCCC[Si](C)(C)OC12c3c4c5c6c7c8c(c9c%10c1c1c%11c3c3c%12c4c4c6c6c7c7c%13c8c9c8c9c%10c1c1c%10c%11c3c3c%11c%12c4c4c6c6c7c7c%13c8c8c9c1c1c%10c3c3c%11c4c6c4c7c8c1c34)C52OC(=O)c1c(C)cccc1C (stereo not shown) [Formula 1c]
FF (Donor PCDTBT): 38.2%
Jsc (Donor PCDTBT): 8.97 mA/cm^2
PCE (Donor PCDTBT): 2.6%
Voc (Donor PCDTBT): 0.76 V

Cc1cccc(C)c1C(=O)OC12c3c4c5c6c7c8c(c9c%10c1c1c%11c3c3c%12c4c4c6c6c7c7c%13c8c9c8c9c%10c1c1c%10c%11c3c3c%11c%12c4c4c6c6c7c7c%13c8c8c9c1c1c%10c3c3c%11c4c6c4c7c8c1c34)C52O[Si](C)(C)c1ccccc1 (stereo not shown) [Formula 1a]
FF (Donor P3HT): 30.4%
Jsc (Donor P3HT): 5.62 mA/cm^2
PCE (Donor P3HT): 0.8%
Voc (Donor P3HT): 0.46 V
FF (Donor PCDTBT): 42.7%
Jsc (Donor PCDTBT): 9.22 mA/cm^2
PCE (Donor PCDTBT): 3.3%
Voc (Donor PCDTBT): 0.84 V
FF (Donor PTB7): 34.7%
Jsc (Donor PTB7): 11.7 mA/cm^2
PCE (Donor PTB7): 2.4%
Voc (Donor PTB7): 0.59 V
